Some of the results follow.
Target: OsWRKY34 (Oryza sativa, UniProt Q0JBA9 1-250)
Experiment: protein-binding microarray (RPBM); PBS, 2% BSA, 51.3 ng/ul salmon testes DNA, 50 uM zinc acetate, 200 nM TF, 25 C, 1 h; high values mean tight binding
Conditions: protein: recombinant; tags: N-terminal polyhistidine and DsRed monomer fusion (pET32a); label: CyDye5-dUTP incorporated in the synthesized complementary strand; 3' TTTTT single-stranded linker to array surface; dsDNA, one strand shown
How it was run: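 Binding signal is reported as fluorescence intensity per feature (arbitrary units) from an Axon 4000B scanner. Incubation used 200 nM of each Ni–NTA-purified, N-terminally polyhistidine- and DsRed-fused transcription factor from E. coli BL21-CodonPlus on a double-stranded custom Agilent array for 1 h at 25 °C, with 50 µM zinc acetate in the buffer, followed by washing.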

The chains behind the UniProt entries cited, without tags or fusion partners.
UniProt Q0JBA9, entry or part of it: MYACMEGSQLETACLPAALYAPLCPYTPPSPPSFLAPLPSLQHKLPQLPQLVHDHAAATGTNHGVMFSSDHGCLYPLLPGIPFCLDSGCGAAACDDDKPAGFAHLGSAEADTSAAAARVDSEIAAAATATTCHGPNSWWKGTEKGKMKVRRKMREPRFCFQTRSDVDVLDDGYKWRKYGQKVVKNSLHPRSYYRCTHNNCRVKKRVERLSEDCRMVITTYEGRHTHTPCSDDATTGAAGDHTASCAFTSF

| Sequence | binding signal |
| --- | --- |
| ACGGTGTAAAAATTAGCAACCTTCATTACCTTGCTTTTGTCGGAGTCACCTAGTGCAG | 10600 fluorescence intensity (a.u.) |
| AAACACATCACGTTGCTGCCCATACACAACACGTGCAAGACGGAGTCACCTAGTGCAG | 8350 fluorescence intensity (a.u.) |
| TCTTTCTCTTTCCTCATTTATTCACTTGCCACATCATTTTCGGAGTCACCTAGTGCAG | 8160 fluorescence intensity (a.u.) |
| AGCAGCATCCCTGTCCTGCGTTCTTGTCATATCTGTTATTCGGAGTCACCTAGTGCAG | 9790 fluorescence intensity (a.u.) |
| CATCCCAAAATATTTGACGTCGTTGACTTTTTTAAAAGTGCGGAGTCACCTAGTGCAG | 18000 fluorescence intensity (a.u.) |
| GGGTTCTTGCTTATTTGGATCCGTTCTTCCGGGGAGCGAGCGGAGTCACCTAGTGCAG | 8540 fluorescence intensity (a.u.) |
| GACAATGCAATCTTACTCCTACTTGCTGGTTATGAGACATCGGAGTCACCTAGTGCAG | 8790 fluorescence intensity (a.u.) |
| CTTTTCTTTTCTCTTTGCTAATTTTGGATTTTATTTTTATCGGAGTCACCTAGTGCAG | 9900 fluorescence intensity (a.u.) |
| AATTCCTGCGGGTCCCGATTCTTCCTATACAGGCCAAATCCGGAGTCACCTAGTGCAG | 12700 fluorescence intensity (a.u.) |
| CAGATTTCCCAGGCCGTCTTGTTTTCCGTCAACACGCCTACGGAGTCACCTAGTGCAG | 9910 fluorescence intensity (a.u.) |
| GACGGGAAAGTCGACTTGCAATCCATCCATGCGGGAAGCTCGGAGTCACCTAGTGCAG | 8860 fluorescence intensity (a.u.) |
| GCACACTTCACCGCAACTCCGGCCGCCCGCCGCCGCCGCCCGGAGTCACCTAGTGCAG | 11800 fluorescence intensity (a.u.) |
| TCAATTGATTATTACTGCCGCTTACTGTCTCCTCTACTGCCGGAGTCACCTAGTGCAG | 9350 fluorescence intensity (a.u.) |
| CAAGATGTTTTGTTTGGCTTTTCTGTTTTTAACAAGTTTACGGAGTCACCTAGTGCAG | 8620 fluorescence intensity (a.u.) |
| TTGTCATCCTCGCCACCTCATTCTTTCTTTCTTTCATCTCCGGAGTCACCTAGTGCAG | 12900 fluorescence intensity (a.u.) |
| CTACGGTTTTTTTTCCACTTTTTAGGGTAGTCGGACTTTTCGGAGTCACCTAGTGCAG | 9140 fluorescence intensity (a.u.) |
| CATCTTTTCCACTTGCTAATGTTGTCGCAACGATTTCTCTCGGAGTCACCTAGTGCAG | 11900 fluorescence intensity (a.u.) |
| TTGACCAACGTTTAACCATTCGTTTCATTTAATTTTTTTTCGGAGTCACCTAGTGCAG | 10800 fluorescence intensity (a.u.) |
| GTTCGTACCTTACTGGAGTTAACTTTGTGCTTTAGGCTATCGGAGTCACCTAGTGCAG | 9310 fluorescence intensity (a.u.) |
| GGGCTTGGGCGGTGGTTAACGAGTTGGAAATAAGTCTACACGGAGTCACCTAGTGCAG | 12800 fluorescence intensity (a.u.) |
| AAACTTCCCCGCGTACGATGACGCCAATACACATACATATCGGAGTCACCTAGTGCAG | 10700 fluorescence intensity (a.u.) |

Random excerpt: 2 entries already listed, in no set order.

| Sequence | binding signal |
| --- | --- |
| TCAATTGATTATTACTGCCGCTTACTGTCTCCTCTACTGCCGGAGTCACCTAGTGCAG | 9350 fluorescence intensity (a.u.) |
| CTACGGTTTTTTTTCCACTTTTTAGGGTAGTCGGACTTTTCGGAGTCACCTAGTGCAG | 9140 fluorescence intensity (a.u.) |

Further results follow:

| Sequence | binding signal |
| --- | --- |
| TCCCGATTTTTCTTTTACCGCGTTGATGAATCGGATTCGTCGGAGTCACCTAGTGCAG | 8100 fluorescence intensity (a.u.) |
| GTCGACTGTCCGCCGCTAGCGCCATCCACGCCGGTGCGCCCGGAGTCACCTAGTGCAG | 9890 fluorescence intensity (a.u.) |
| GCGAGATACTACTATTTTGTGATGCTATGATACTTGCGTCCGGAGTCACCTAGTGCAG | 8270 fluorescence intensity (a.u.) |
| ATGCTTATACCATTTTTTTTAAGAACTATGCACTTTGAGACGGAGTCACCTAGTGCAG | 8090 fluorescence intensity (a.u.) |
| TGGAAAGGTTCTTCTTCTTCGGGGTTGTTTGCTGCTGCTTCGGAGTCACCTAGTGCAG | 9160 fluorescence intensity (a.u.) |
| AGAACTTTGGTAGAGTAGGCCCTGTATTGATTGGATTCGACGGAGTCACCTAGTGCAG | 8240 fluorescence intensity (a.u.) |
| CCGTCTCCTCGCGAGTTCACCCGCCACCTGCGCCGGTCTCCGGAGTCACCTAGTGCAG | 10500 fluorescence intensity (a.u.) |
| CAAAGTCCGACCCGTTCACACCATCACCATCACCATCACCCGGAGTCACCTAGTGCAG | 8560 fluorescence intensity (a.u.) |
| TTGAACTAGTTGTGTGCATTTTTTTACTCTGTCCATTATCCGGAGTCACCTAGTGCAG | 11000 fluorescence intensity (a.u.) |
| AAGGTGGTGTTTGAGAGGGGAGGGACATATTTTAATCCATCGGAGTCACCTAGTGCAG | 10600 fluorescence intensity (a.u.) |
| CGTGGGGCACTTTAAGTCAACGACATGTCTGCAAATCATCCGGAGTCACCTAGTGCAG | 8390 fluorescence intensity (a.u.) |
| CCTCGTCCTCAACCGCCTCCGCCTCCGCCTCCGCGACCGACGGAGTCACCTAGTGCAG | 13000 fluorescence intensity (a.u.) |
| CTCAACAAACCTTCCACATTGTTACCGTTTACAGATTTTCCGGAGTCACCTAGTGCAG | 8600 fluorescence intensity (a.u.) |
| TTGACCCGGCGCGCGGCCCACGGAGCTCCGGCCTTTATTACGGAGTCACCTAGTGCAG | 10200 fluorescence intensity (a.u.) |
| TACTCACATGTCCATCCTACATCCCAGGTTCTTCTTTGAGCGGAGTCACCTAGTGCAG | 11700 fluorescence intensity (a.u.) |
| GTTTGGTCGCCTTTATCAAAAGACACACACGCTGCCTCTCCGGAGTCACCTAGTGCAG | 8030 fluorescence intensity (a.u.) |
| CTTAACCTCCTTTATTTGGAAACATGTACCTTCGTTTTCTCGGAGTCACCTAGTGCAG | 8440 fluorescence intensity (a.u.) |
| GATGACATCCGCTCGGCTTTCTACATCCATCGTTCCGACACGGAGTCACCTAGTGCAG | 8080 fluorescence intensity (a.u.) |
| AGTTTTTTTTTTCTTCACTGTCGACCATGCATGCGTTGATCGGAGTCACCTAGTGCAG | 9750 fluorescence intensity (a.u.) |
| AAATTCCACGTGCCACATATTTCGTTCATTTGAGTTTATTCGGAGTCACCTAGTGCAG | 12000 fluorescence intensity (a.u.) |
| TTTTATAAATTCGAGCGTGTGCGGGTTTCGTTTTCTCACTCGGAGTCACCTAGTGCAG | 9840 fluorescence intensity (a.u.) |

Reference: PMC7819943, “Rice protein-binding microarrays: a tool to detect cis-acting elements near promoter regions in rice”
